Laboratory results taken from the supplement of paper PMC12889115.
The other results are listed elsewhere or left out. Values are raw readings; no control value is given beside them.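 First-pass screen: polymyxin B was added at a level that permeabilizes the Salmonella outer membrane while sparing the inner membrane. DMSO wells, with and without polymyxin B, defined maximum growth. Because plates differed from one another, each plate's data were ranked separately and the compounds with the lowest OD600 were carried forward as hits.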

Test system: Salmonella enterica serovar Typhimurium SL1344
Experiment: bacterial growth OD600 after 18 h with compound and polymyxin B; higher = more bacterial growth (less inhibition)
Conditions: 50 µM, Mueller-Hinton broth

Row | Structure (SMILES) | bacterial growth OD600 (polymyxin B 0.75 µg/mL) | bacterial growth OD600 (polymyxin B 1 µg/mL)
1 | O=C(CCn1cncn1)N1CCCC(CCc2ccc(F)cc2F)C1 (stereo not given) | 0.805 | –
2 | O=C(CN1Cc2ccccc2OC(c2ccsc2)C1)N1CCC(N2CCSCC2)CC1 (stereo not given) | 0.846 | –
3 | Cc1cnc(SCCN2CCOCC2)nc1C1CCCN(C(=O)/C=C/c2ccc(F)cc2)C1 (stereo not given) | 0.932 | –
4 | Cc1cccnc1N1CCC(C2CCN(Cc3cccnc3)CC2)C1 (stereo not given) | 0.764 | –
5 | CSc1nc(C(=O)NCc2nc(-c3cccc(NC(=O)C4CCCN(C)C4)c3)oc2C)cs1 (stereo not given) | 0.739 | –
6 | COc1ccc(C(=O)NC2CC2)c(OC2CCN(CC(C)c3ccccc3)CC2)c1 (stereo not given) | – | 1.28
7 | Cc1cc(C)n(Cc2cc(C(=O)N(C)CC3Cc4ccccc4O3)n[nH]2)n1 (stereo not given) | – | 0.935
8 | Cc1nonc1CN(C)C(=O)CC1(c2ccccc2)CC(=O)N(CCCOc2cccnc2)C1=O (stereo not given) | 0.83 | –
9 | COc1ccc(CN2CCN(Cc3ccc4c(c3)OCCO4)CC2CCO)cc1C (stereo not given) | – | 1.02
10 | COc1ccccc1C1CCCN1C(=O)C1(N(C)C)Cc2ccccc2C1 (stereo not given) | – | 0.808
11 | Cc1cnc(C)c(N2CCN(Cc3nc(-c4ccccc4)no3)CC2)n1 | – | 0.894
12 | COc1cccc(CCC2CCCN(C(=O)c3csc(C(C)=O)c3)C2)c1 (stereo not given) | 0.101 | –
13 | COc1ccc(CCN2CC(NC(=O)c3ccsc3)CC2=O)cc1 (stereo not given) | – | 0.887
14 | O=C(c1csc(-c2cccs2)n1)N1CCCC(CO)(Cc2cccc(Cl)c2)C1 (stereo not given) | – | -0.001
15 | c1ccc(COC2CCCN(Cc3nc(Cc4ccccc4)no3)C2)cc1 (stereo not given) | – | 0.922
16 | COc1cccc(NC(=O)CCC2CCN(C(=O)Nc3ccccc3SC)CC2)c1 | – | 0.835
17 | Cc1ccc2[nH]c(C(=O)N3CC[C@@H](N4CCC(O)CC4)[C@H](O)C3)c(C)c2c1 | – | 0.935
18 | C=CCCC(=O)N1CCCC(CCc2ccc(F)c(F)c2)C1 (stereo not given) | 0.007 | –
19 | COc1ccc2c(c1)OC(C)CN(CCC(=O)NCCSc1nncn1C)C2 (stereo not given) | 0.853 | –
20 | CCOc1ccc2nc(N3CCCC(C(=O)NCCc4cnccn4)C3)nc(C)c2c1 (stereo not given) | 0.783 | –

Taken from the results shown for reference:
Row | Structure (SMILES) | bacterial growth OD600 (polymyxin B 0.75 µg/mL) | bacterial growth OD600 (polymyxin B 1 µg/mL)
1 | O=C(CCn1cncn1)N1CCCC(CCc2ccc(F)cc2F)C1 (stereo not given) | 0.805 | –
2 | O=C(CN1Cc2ccccc2OC(c2ccsc2)C1)N1CCC(N2CCSCC2)CC1 (stereo not given) | 0.846 | –
3 | Cc1cnc(SCCN2CCOCC2)nc1C1CCCN(C(=O)/C=C/c2ccc(F)cc2)C1 (stereo not given) | 0.932 | –
4 | Cc1cccnc1N1CCC(C2CCN(Cc3cccnc3)CC2)C1 (stereo not given) | 0.764 | –
5 | CSc1nc(C(=O)NCc2nc(-c3cccc(NC(=O)C4CCCN(C)C4)c3)oc2C)cs1 (stereo not given) | 0.739 | –
